In patent US20060149521A1 (University of California, published 2006):
Results are given in words; binding and its absence hold for the method and conditions named. Binding calls can cover weak binding; strength is not graded here.

Tests used:
[1] = target: glucocorticoid receptor (GR), full length; assay: peptide competition of GR binding to GST-GRIP1 (563-767)
[2] = target: glucocorticoid receptor (GR), full length; assay: peptide competition of GR binding to GRIP1

In the case of ENALLRYLLDKDD [GRIP1 NR-box 3 peptide ENALLRYLLDKDD], the binding [1] is reported as “binds”.

In the case of EKHKILHRLLQDS (also called original NR-box 2 peptide) [GRIP1 NR-box 2 peptide EKHKILHRLLQDS], the binding [2] is reported as “binds”.
